Results as given in PubChem BioAssay AID540256 (National Center for Advancing Translational Sciences (NCATS), 2011).
Among all 300,000 compounds or so, about 3,700 (1.2%) were called active. Inconclusive results, whose numbers are uncertain, are shown with a selection of clear calls. Calls come from the whole dose curve; tested in HEK293 cells. Where the call is inconclusive, the potency comes from a doubtful curve fit.

Assay: qHTS for Inhibitors of binding or entry into cells for Lassa Virus; note: nearly all actives have a fitted effect of over 50% in size
Conditions: Lassa virus pseudotype entry inhibition, cell reporter; series mostly up to 37.9 µM
Potency is the fitted concentration of half-maximal effect.

**Q.** With `Cc1cc(C)nc(/N=C(\N)Nc2ccc(C(C)C)cc2)n1` as the compound, how does the Potency read?
**A.** inconclusive: 35.5 µM [inhibitor, single point]

**Q.** For `COC(=O)c1c(NC(=O)CN2CCC3(O)CCCCC3C2c2ccccc2OC)sc(C)c1C` (stereo not given), which Potency is on record?
**A.** inconclusive: 15.8 µM [inhibitor, single point]

**Q.** With `COc1ccc(N2CCN(C3CCCCC3NS(=O)(=O)c3ccccc3)CC2)cc1` (stereo not given) as the compound, how does the Potency read?
**A.** inconclusive: 7.94 µM [inhibitor, full curve, poor fit]

**Q.** For `O=C(CS(=O)(=O)c1ccc(Cl)c(Cl)c1)Nc1ccccc1Cl`, which Potency is on record?
**A.** inconclusive: 0.0231 µM [inhibitor, full curve, poor fit]

**Q.** For `Cc1cc(/C=N/NC(N)=S)c(C)n1-c1ccc(Br)cc1`, which Potency is on record?
**A.** inconclusive: 11.2 µM [inhibitor, partial curve]

**Q.** With `Fc1ccc(-c2n[nH]c(=S)n2/N=C/c2c[nH]c3ccccc23)cc1` as the compound, how does the Potency read?
**A.** inconclusive: 11.2 µM [inhibitor, partial curve]

**Q.** For `CC(=O)c1ccccc1NC(=O)CCNC(=O)c1ccco1`, which Potency is on record?
**A.** inactive

**Q.** For `COc1ccc(C(=O)Nc2nnc(C(C)C)s2)cc1OC`, which Potency is on record?
**A.** inconclusive: 17.8 µM [activator, single point]

**Q.** For `CCOC(=O)NN1C(=O)c2ccccc2NC1c1ccc(N(C)C)cc1` (stereo not given), which Potency is on record?
**A.** inconclusive: 0.1 µM [inhibitor, full curve, poor fit]

**Q.** Which Potency does the source give for `CN(C)S(=O)(=O)N1CCN(S(=O)(=O)c2ccc(F)cc2)CC1` here?
**A.** inactive

**Q.** With `O=C(c1ccc(Cl)c(S(=O)(=O)N2CCCC2)c1)N1CCN(c2ccccc2)CC1` as the compound, how does the Potency read?
**A.** inconclusive: 35.5 µM [inhibitor, single point]

**Q.** With `CN(C)c1ccc(/C=C2/SC(=O)N(CCN=C3NS(=O)(=O)c4ccccc43)C2=O)cc1` as the compound, how does the Potency read?
**A.** inactive

**Q.** With `COc1cccc(CN(C)C(=O)c2cc(S(=O)(=O)NCc3ccccc3)ccc2C)c1OC` as the compound, how does the Potency read?
**A.** inactive

**Q.** Which Potency does the source give for `Clc1ccc(Cn2ncc3c(NCc4cccnc4)ncnc32)cc1` here?
**A.** inconclusive: 35.5 µM [inhibitor, single point]

**Q.** For `Cc1ccc(/C=C/C(=O)c2ccc(C)cc2)cc1`, which Potency is on record?
**A.** inactive

**Q.** For `CCCCN1C(C(=O)Nc2cc(C)on2)=C(O)c2ccccc2S1(=O)=O`, which Potency is on record?
**A.** inconclusive: 35.5 µM [activator, single point]

**Q.** Which Potency does the source give for `NCCc1nc2cccnc2n1-c1ccccc1` here?
**A.** inconclusive: 14.1 µM [activator, partial curve, poor fit]

**Q.** With `Cc1ccc(Cn2cc(C(=O)c3ccc4c(c3)OCO4)c(=O)c3cc(C)ccc32)cc1` as the compound, how does the Potency read?
**A.** inconclusive: 35.5 µM [inhibitor, single point]

**Q.** With `CSc1ccccc1OCc1cc(C(=O)N[C@H]2CCCCNC2=O)no1` as the compound, how does the Potency read?
**A.** inconclusive: 3.16 µM [activator, partial curve, poor fit]

**Q.** With `Cc1cc(C(=O)NCCC(c2ccccc2)c2ccccc2)c(C)o1` as the compound, how does the Potency read?
**A.** inactive

**Q.** With `Cc1cccc(C)c1NC(=O)CN(C)C(=O)c1cccc(NS(=O)(=O)c2ccccc2)c1` as the compound, how does the Potency read?
**A.** inconclusive: 7.94 µM [inhibitor, partial curve]

**Q.** With `N#Cc1ccc(-c2ccco2)nc1SCC(=O)c1ccc(Cl)cc1` as the compound, how does the Potency read?
**A.** inconclusive: 3.55 µM [inhibitor, single point]

**Q.** For `Nc1ccc(S(=O)(=O)NNC(=O)C(=O)NNc2ccccn2)cc1`, which Potency is on record?
**A.** inactive

**Q.** With `COC(=O)c1ccccc1NC(=O)c1ccc2c(c1)CC(C)O2` (stereo not given) as the compound, how does the Potency read?
**A.** inconclusive: 2 µM [inhibitor, full curve, poor fit]

**Q.** Which Potency does the source give for `O=C(c1ccco1)N1CCN(c2cc(N3CCOCC3)c(F)cc2[N+](=O)[O-])CC1` here?
**A.** inconclusive: 35.5 µM [inhibitor, single point]

**Q.** Which Potency does the source give for `COc1cc(-c2nc3ccc4ccccc4c3c3c2CCC3)cc(OC)c1O` here?
**A.** inconclusive: 35.5 µM [inhibitor, single point]

**Q.** For `COc1cccc(-n2c(SCC(=O)Nc3nnc(C)s3)nc3c([nH]c4ccccc43)c2=O)c1`, which Potency is on record?
**A.** inconclusive: 31.6 µM [inhibitor, single point]

**Q.** Which Potency does the source give for `CCC(C)[C@H](NC(=O)N1CCC(C)CC1)C(=O)OC` (stereo not given in full) here?
**A.** inconclusive: 31.6 µM [activator, single point]

**Q.** For `CCOC(=O)C1=C(CN2CCN(c3ccc(OC)cc3)CC2)NC(=O)NC1c1ccc(Cl)cc1` (stereo not given), which Potency is on record?
**A.** inconclusive: 20 µM [inhibitor, partial curve, poor fit]

**Q.** Which Potency does the source give for `CCOc1ccc(NC(=O)C2CCCN(S(=O)(=O)c3c(C)noc3/C=C/N(C)C)C2)cc1` (stereo not given) here?
**A.** inactive

**Q.** For `Cc1csc(NC(=O)CSc2[nH]c(=O)ncc2C)n1`, which Potency is on record?
**A.** inactive

**Q.** With `COc1ccc(-c2cn(-c3ccc(C)c(Cl)c3)c(=S)[nH]2)cc1OC` as the compound, how does the Potency read?
**A.** inactive

**Q.** For `COCCNC(=O)CSc1nc(-c2ccccc2)[nH]c1-c1ccc(OC)cc1`, which Potency is on record?
**A.** inconclusive: 22.4 µM [inhibitor, single point]

**Q.** Which Potency does the source give for `N#Cc1nc(-c2ccccc2)oc1NCCCn1ccnc1` here?
**A.** inconclusive: 2.82 µM [activator, full curve, poor fit]

**Q.** For `CCOC(=O)c1c(S(=O)(=O)N2CCC(C(=O)Nc3ccc(C)cc3C)CC2)c(C)n(C)c1C`, which Potency is on record?
**A.** inconclusive: 0.562 µM [activator, partial curve, poor fit]

**Q.** With `COc1ccc(NC(=O)Nc2cccc([N+](=O)[O-])c2)cc1Cl` as the compound, how does the Potency read?
**A.** inactive

**Q.** Which Potency does the source give for `O=C1C2C3C=CC(C3)C2C(=O)N1CCc1ccccc1` (stereo not given) here?
**A.** inactive

**Q.** Which Potency does the source give for `Cc1ccc(-c2nnc(Nc3cccc(O)c3)c3ccccc23)cc1S(=O)(=O)NCC1CCCO1` (stereo not given) here?
**A.** inactive

**Q.** For `Cc1ccc(Cl)cc1N1CCN(C(=O)c2ccc3c(c2)CCN3S(=O)(=O)c2ccccc2)CC1`, which Potency is on record?
**A.** inconclusive: 2 µM [inhibitor, partial curve, poor fit]

**Q.** For `CCC(C)c1ccccc1NC(=O)CN(C)CCOc1ccc(Cl)cc1` (stereo not given), which Potency is on record?
**A.** inconclusive: 39.8 µM [inhibitor, partial curve, poor fit]

**Q.** With `Cc1ccc(Sc2ncccc2COC(=O)NC(C)C)cc1` as the compound, how does the Potency read?
**A.** inconclusive: 35.5 µM [inhibitor, partial curve, poor fit]

**Q.** With `COc1ccc(NC(=O)CC(c2ccco2)C(C)C)cc1` (stereo not given) as the compound, how does the Potency read?
**A.** inconclusive: 5.62 µM [inhibitor, single point]

**Q.** Which Potency does the source give for `CCOc1ccccc1N(C(=O)c1snc(C(N)=O)c1N)C(CC)C(=O)NC1CCCC1` (stereo not given) here?
**A.** inconclusive: 10 µM [inhibitor, partial curve, poor fit]

**Q.** With `C=CCOc1ccc2c(OC)c3ccoc3nc2c1OC` as the compound, how does the Potency read?
**A.** inactive

**Q.** Which Potency does the source give for `Cc1ccc(S(=O)(=O)NCCC(=O)NCc2ccccc2)cc1` here?
**A.** inconclusive: 4.11 µM [activator, partial curve, poor fit]

**Q.** With `CCOC(=O)N1CCC(NC(=O)c2cnn(-c3cccc(F)c3)c2-n2cccc2)CC1` as the compound, how does the Potency read?
**A.** inactive

**Q.** With `COCCCNC(=O)c1ccccc1Oc1ccccc1` as the compound, how does the Potency read?
**A.** inactive

**Q.** Which Potency does the source give for `CCN(CC(=O)NCCCN1CCOCC1)S(=O)(=O)c1ccc(F)cc1` here?
**A.** inactive

**Q.** For `O=C(Nc1ccccc1)c1ccc(OC(=O)c2cc3ccccc3o2)cc1`, which Potency is on record?
**A.** inactive

**Q.** With `O=C(O)c1ccccc1C(=O)NC1CCCCNC1=O` (stereo not given) as the compound, how does the Potency read?
**A.** inactive

**Q.** With `CC(C)c1ccc(/C=N/n2cnnc2)cc1` as the compound, how does the Potency read?
**A.** inactive

**Q.** For `COc1ccccc1NC(=O)c1ccc2snnc2c1`, which Potency is on record?
**A.** inactive

**Q.** With `COc1cccc(Nc2sc(C(=O)c3ccc(Cl)cc3)c(N)c2C(=O)NCc2ccc(C)cc2)c1` as the compound, how does the Potency read?
**A.** inconclusive: 35.5 µM [inhibitor, single point]

**Q.** Which Potency does the source give for `COCC(C)Nc1nc(C)c(C(C)=O)s1` (stereo not given) here?
**A.** inconclusive: 35.5 µM [inhibitor, single point]

**Q.** With `Cc1cc(Br)ccc1NC(=S)NCCc1ccccc1` as the compound, how does the Potency read?
**A.** inconclusive: 8.91 µM [inhibitor, partial curve, poor fit]

**Q.** Which Potency does the source give for `CCOc1cc(C(=O)Nc2cccc3cccnc23)cc(OCC)c1OCC` here?
**A.** inactive

**Q.** Which Potency does the source give for `COc1ccc(C(=O)N(Cc2ccco2)Cc2cc3cc(C)ccc3[nH]c2=O)cc1OC` here?
**A.** inconclusive: 35.5 µM [inhibitor, single point]

**Q.** With `Cc1ccc(C(=O)CCNc2ccc(Cl)cc2)o1` as the compound, how does the Potency read?
**A.** inactive

**Q.** For `COc1ccc(OC)c(NC(=O)C(=O)/C=C(\O)c2cc(OC)ccc2OC)c1`, which Potency is on record?
**A.** inactive

**Q.** For `COc1ccc2oc(C(=O)OCC(=O)N(C)Cc3ccccc3)c(C)c2c1`, which Potency is on record?
**A.** inconclusive: 35.5 µM [inhibitor, single point]

**Q.** With `COc1ccccc1NC(=O)c1cccs1` as the compound, how does the Potency read?
**A.** inconclusive: 0.116 µM [inhibitor, full curve]

**Q.** With `CCOC(=O)c1cnn(-c2ncnc3c2cnn3C)c1N` as the compound, how does the Potency read?
**A.** inconclusive: 5.62 µM [activator, single point]

**Q.** For `COC(=O)CC1C(=O)NCCN1C(=S)Nc1cccc(C)c1` (stereo not given), which Potency is on record?
**A.** inactive

**Q.** For `CCOc1ccc(NS(=O)(=O)c2cc(NC(=O)c3cccc(C)c3)ccc2Cl)cc1`, which Potency is on record?
**A.** active: 15.8 µM

**Q.** Which Potency does the source give for `CCOC(=O)c1sc2nc(CSc3ccccc3Cl)[nH]c(=O)c2c1C` here?
**A.** inconclusive: 4.47 µM [inhibitor, full curve]

**Q.** Which Potency does the source give for `Cc1ccc(CNC(=O)C(=O)NCC2OCCN2C(=O)c2cccs2)cc1` (stereo not given) here?
**A.** inconclusive: 1.26 µM [inhibitor, single point]

**Q.** For `O=C(OCC(=O)N1CCN(C(=O)c2ccco2)CC1)c1ccccc1OCc1ccc(Cl)cc1`, which Potency is on record?
**A.** inconclusive: 35.5 µM [inhibitor, single point]

**Q.** For `CCN1C(=NCc2ccco2)N[C@@H](CCc2ccccc2)[C@H](C(=O)OC)[C@H]1C`, which Potency is on record?
**A.** inconclusive: 0.0944 µM [activator, full curve, poor fit]

**Q.** For `O=C(NCCc1ccccc1)c1ccc2c(c1)N(Cc1ccccc1)C(=O)c1ccccc1S2(=O)=O`, which Potency is on record?
**A.** inconclusive: 12.6 µM [inhibitor, single point]

**Q.** For `Cc1nnc(SCCn2c(N3CCC(C)CC3)nc3c2c(=O)[nH]c(=O)n3C)s1`, which Potency is on record?
**A.** inconclusive: 10.3 µM [inhibitor, partial curve, poor fit]
